These are yes or no findings as the source states them, for the method shown. Binding seen in cells or lysates may run through a third protein. Some entries that bind do so weakly or less than the wild type. Tags and fused reporters may be left off the sequences shown.
Biological target: Flag tagged SIRT1 (human (cDNA library of HepG2 cells)) (UniProt Q96EB6)
Experiment: co-IP; 293T cells cotransfected with Myc tagged TRβ1 and Flag tagged SIRT1, treated +/- 10 nM T3 for 12 h; RIPA lysate (400 µg) with anti-Flag or anti-myc agarose beads, 12 h at 4°C; Western blot

Amino acid sequences for entries named in this document (tags omitted).
UniProt Q96EB6: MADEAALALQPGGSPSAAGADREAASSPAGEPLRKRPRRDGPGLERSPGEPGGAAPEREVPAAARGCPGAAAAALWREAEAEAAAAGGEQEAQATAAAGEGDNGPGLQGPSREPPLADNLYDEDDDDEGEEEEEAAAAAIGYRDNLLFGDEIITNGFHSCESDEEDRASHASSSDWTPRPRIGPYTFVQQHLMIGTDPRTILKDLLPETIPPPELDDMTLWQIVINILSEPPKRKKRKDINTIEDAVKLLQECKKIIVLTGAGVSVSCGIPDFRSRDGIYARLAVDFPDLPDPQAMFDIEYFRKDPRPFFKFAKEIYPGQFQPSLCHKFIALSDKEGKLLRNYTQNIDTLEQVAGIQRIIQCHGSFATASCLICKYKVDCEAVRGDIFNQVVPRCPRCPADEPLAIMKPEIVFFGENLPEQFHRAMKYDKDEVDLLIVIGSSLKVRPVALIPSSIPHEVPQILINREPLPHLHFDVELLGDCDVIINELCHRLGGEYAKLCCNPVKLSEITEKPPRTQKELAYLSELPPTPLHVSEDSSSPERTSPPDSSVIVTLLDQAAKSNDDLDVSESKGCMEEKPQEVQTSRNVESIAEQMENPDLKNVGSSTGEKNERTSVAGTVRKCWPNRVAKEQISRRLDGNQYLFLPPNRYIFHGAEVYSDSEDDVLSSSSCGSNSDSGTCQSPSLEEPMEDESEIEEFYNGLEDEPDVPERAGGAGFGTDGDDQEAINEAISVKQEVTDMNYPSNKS

B1: Myc tagged TRβ1 (receptor, UniProt P10828-1 1-461)
chain: MTPNSMTENGLTAWDKPKHCPDREHDWKLVGMSEACLHRKSHSERRSTLKNEQSSPHLIQTTWTSSIFHLDHDDVNDQSVSSAQTFQTEEKKCKGYIPSYLDKDELCVVCGDKATGYHYRCITCEGCKGFFRRTIQKNLHPSYSCKYEGKCVIDKVTRNQCQECRFKKCIYVGMATDLVLDDSKRLAKRKLIEENREKRRREELQKSIGHKPEPTDEEWELIKTVTEAHVATNAQGSHWKQKRKFLPEDIGQAPIVNAPEGGKVDLEAFSHFTKIITPAITRVVDFAKKLPMFCELPCEDQIILLKGCCMEIMSLRAAVRYDPESETLTLNGEMAVTRGQLKNGGLGVVSDAIFDLGMSLSSFNLDDTEVALLQAVLLMSSDRPGLACVERIEKYQDSFLLAFEHYINYRKHHVTHFWPKLLMKVTDLRMIGACHASRFLHMKVECPTELFPPLFLEVFED
binding: binds

— PMC3724829
